Earlier results in patent publication US20190054022A1, “FORMULATIONS OF SITE-SPECIFIC, MICROPARTICULATE COMPOSITIONS AND THEIR USE TO IMPROVE OUTCOME AFTER ANEURSYMAL SUBARACHNOID HEMORRHAGE” (Edge Therapeutics, Inc., priority 2016, published 2019).
For at least one compound, name, drawing or mass did not settle the structure.

Conditions: in vivo; cited from earlier work

SMILES: COC(=O)C1=C(C)NC(C)=C(C(=O)OCCN(C)Cc2ccccc2)C1c1cccc([N+](=O)[O-])c1 (stereo not shown) [Nicardipine]
- duration of action: up to 3 hours
